Some of the results follow. The data scatter; read single values as rough.
Compound: ClCC(=O)N[C@H]1CCCc2ccccc12
Experiment: log2 mean competition ratio of IA-DTB cysteine labelling (DMSO/compound) (log2 ratio); higher = stronger cysteine engagement by compound
Conditions: 50 µM; treatment time: 4 h; cell line lysate: HEK293T
Method: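 IA-DTB competitive cysteine chemoproteomics in HEK293T RIPA lysate. Lysates were treated with compound 29 or 30 at 50 or 200 µM for 4 h, then IA-DTB (500 µM, 1 h), trypsin-digested, NeutrAvidin-enriched and analysed by diaPASEF. Competition ratio = intensity DMSO / intensity compound (n=4 treated, n=64 DMSO); binding: mean log2 CR ≥ 1 and p ≤ 0.05 plus QC filters. Target is the cysteine site.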

Amino acid sequences for entries named in this document (tags omitted). A change or cut given only in a name is not applied to a line headed by its entry. Residues count along the entry.
UniProt Q5T1V6: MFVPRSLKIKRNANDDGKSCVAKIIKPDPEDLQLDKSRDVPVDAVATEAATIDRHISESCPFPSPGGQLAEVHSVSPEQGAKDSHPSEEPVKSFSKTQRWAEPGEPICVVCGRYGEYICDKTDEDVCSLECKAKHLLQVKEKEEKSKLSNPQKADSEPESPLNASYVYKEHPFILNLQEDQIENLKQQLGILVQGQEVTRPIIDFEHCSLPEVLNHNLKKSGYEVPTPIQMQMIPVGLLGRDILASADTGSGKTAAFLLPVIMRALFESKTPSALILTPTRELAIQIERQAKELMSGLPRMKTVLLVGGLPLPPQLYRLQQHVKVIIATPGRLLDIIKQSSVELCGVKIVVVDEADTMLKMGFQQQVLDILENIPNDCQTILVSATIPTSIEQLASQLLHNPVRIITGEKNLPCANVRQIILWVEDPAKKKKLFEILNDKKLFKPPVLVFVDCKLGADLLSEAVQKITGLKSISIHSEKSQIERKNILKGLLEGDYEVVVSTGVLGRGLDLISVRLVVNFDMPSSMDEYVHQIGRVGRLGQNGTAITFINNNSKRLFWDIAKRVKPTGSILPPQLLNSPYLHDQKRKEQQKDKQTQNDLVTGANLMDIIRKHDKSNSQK
UniProt Q9BZJ0: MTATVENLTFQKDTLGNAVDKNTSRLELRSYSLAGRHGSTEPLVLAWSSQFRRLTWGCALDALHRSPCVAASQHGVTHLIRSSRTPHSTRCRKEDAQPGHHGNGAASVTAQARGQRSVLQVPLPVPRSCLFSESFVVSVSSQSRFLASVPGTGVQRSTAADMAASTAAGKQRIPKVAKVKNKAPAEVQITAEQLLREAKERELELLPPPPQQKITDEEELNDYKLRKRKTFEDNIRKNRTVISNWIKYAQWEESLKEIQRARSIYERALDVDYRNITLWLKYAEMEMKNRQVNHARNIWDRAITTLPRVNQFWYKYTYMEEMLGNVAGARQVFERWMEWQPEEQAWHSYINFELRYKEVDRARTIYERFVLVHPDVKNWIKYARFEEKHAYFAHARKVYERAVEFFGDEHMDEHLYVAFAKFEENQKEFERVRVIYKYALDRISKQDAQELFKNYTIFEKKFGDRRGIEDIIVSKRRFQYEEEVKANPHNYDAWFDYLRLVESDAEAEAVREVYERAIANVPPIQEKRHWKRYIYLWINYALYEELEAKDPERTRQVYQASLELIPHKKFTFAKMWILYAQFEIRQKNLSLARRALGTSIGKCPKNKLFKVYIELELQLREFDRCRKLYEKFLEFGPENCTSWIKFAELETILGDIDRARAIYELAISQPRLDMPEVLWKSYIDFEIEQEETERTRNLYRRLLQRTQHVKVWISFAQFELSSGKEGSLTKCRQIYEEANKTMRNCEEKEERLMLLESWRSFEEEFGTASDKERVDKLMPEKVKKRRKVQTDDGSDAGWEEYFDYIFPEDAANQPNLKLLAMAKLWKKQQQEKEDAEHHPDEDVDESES
UniProt Q9UHI6: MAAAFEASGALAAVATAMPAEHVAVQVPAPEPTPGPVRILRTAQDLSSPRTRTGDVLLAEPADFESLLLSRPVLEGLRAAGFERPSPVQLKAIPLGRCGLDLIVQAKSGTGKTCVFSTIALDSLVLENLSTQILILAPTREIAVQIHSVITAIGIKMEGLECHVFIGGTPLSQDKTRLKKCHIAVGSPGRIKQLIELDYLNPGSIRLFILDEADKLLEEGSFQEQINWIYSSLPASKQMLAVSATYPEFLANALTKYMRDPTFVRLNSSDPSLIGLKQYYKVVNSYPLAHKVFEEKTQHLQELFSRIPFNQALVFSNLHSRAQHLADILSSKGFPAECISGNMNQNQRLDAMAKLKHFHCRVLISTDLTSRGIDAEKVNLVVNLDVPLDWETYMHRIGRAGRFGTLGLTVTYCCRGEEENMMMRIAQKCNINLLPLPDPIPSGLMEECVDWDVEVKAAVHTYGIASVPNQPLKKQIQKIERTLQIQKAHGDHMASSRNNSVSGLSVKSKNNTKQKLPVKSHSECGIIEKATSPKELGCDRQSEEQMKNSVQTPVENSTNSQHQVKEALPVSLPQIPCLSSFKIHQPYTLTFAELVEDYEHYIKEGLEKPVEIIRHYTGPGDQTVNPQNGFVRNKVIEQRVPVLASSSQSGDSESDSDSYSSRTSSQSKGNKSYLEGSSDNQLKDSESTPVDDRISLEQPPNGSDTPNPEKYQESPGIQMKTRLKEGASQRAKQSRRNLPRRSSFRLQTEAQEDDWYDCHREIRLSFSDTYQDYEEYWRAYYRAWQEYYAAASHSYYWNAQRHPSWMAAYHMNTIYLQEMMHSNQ
UniProt O75935, 129-148: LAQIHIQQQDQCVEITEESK
UniProt O00399: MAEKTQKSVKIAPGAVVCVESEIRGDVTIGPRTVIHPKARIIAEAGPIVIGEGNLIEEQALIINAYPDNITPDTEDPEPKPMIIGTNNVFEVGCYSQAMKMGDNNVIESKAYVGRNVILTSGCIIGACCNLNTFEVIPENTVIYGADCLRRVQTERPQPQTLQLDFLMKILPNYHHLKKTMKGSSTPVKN
UniProt Q6UXH1: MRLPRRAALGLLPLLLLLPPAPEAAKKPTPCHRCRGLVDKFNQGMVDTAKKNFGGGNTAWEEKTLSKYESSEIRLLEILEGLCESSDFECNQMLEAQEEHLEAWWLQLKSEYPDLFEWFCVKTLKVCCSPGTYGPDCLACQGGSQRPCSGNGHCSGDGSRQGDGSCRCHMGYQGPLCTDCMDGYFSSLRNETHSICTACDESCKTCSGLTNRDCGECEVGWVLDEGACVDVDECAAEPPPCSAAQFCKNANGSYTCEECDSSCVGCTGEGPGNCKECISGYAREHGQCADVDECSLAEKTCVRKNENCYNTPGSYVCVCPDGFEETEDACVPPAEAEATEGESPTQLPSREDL
UniProt P17844: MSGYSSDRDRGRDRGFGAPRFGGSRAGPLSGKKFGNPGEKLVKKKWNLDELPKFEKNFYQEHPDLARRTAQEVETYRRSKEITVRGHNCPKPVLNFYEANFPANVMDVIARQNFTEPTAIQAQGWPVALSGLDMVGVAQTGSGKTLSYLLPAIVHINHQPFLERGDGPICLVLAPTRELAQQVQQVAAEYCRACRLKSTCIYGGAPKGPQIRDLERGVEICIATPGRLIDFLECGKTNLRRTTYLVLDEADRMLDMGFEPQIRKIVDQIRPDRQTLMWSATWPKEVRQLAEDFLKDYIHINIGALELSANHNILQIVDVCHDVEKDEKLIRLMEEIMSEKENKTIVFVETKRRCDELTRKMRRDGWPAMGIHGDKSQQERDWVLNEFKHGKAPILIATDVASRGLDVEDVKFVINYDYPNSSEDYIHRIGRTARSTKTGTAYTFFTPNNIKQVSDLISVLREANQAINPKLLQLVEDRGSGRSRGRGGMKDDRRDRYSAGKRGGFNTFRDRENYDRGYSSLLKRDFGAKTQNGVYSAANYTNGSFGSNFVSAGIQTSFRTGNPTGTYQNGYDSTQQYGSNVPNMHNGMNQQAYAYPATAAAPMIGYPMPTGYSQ
UniProt Q9NUI1: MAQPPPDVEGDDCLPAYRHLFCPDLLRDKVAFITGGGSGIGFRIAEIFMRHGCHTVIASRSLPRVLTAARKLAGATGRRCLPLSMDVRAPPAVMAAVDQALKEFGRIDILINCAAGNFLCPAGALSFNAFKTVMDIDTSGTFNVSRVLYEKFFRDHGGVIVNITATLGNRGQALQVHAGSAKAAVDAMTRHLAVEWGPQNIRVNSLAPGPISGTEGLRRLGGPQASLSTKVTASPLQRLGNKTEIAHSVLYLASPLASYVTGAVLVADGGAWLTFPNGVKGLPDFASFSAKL
UniProt Q9NRF8: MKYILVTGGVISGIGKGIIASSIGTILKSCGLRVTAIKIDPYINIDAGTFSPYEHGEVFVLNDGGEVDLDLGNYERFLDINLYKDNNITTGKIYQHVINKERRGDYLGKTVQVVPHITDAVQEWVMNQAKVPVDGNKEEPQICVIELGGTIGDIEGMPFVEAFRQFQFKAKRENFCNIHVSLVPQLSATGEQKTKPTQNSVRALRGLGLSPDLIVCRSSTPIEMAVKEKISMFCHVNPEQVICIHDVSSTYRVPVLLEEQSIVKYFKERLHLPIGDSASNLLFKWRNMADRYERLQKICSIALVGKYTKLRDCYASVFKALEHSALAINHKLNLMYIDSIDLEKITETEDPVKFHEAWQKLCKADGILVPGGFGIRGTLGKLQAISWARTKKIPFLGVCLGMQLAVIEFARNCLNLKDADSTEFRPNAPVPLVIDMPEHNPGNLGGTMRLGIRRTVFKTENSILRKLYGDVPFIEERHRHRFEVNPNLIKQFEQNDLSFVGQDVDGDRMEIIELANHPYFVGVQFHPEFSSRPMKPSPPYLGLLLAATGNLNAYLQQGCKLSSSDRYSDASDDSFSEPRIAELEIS
UniProt Q8TDD1, whole entry, looked up: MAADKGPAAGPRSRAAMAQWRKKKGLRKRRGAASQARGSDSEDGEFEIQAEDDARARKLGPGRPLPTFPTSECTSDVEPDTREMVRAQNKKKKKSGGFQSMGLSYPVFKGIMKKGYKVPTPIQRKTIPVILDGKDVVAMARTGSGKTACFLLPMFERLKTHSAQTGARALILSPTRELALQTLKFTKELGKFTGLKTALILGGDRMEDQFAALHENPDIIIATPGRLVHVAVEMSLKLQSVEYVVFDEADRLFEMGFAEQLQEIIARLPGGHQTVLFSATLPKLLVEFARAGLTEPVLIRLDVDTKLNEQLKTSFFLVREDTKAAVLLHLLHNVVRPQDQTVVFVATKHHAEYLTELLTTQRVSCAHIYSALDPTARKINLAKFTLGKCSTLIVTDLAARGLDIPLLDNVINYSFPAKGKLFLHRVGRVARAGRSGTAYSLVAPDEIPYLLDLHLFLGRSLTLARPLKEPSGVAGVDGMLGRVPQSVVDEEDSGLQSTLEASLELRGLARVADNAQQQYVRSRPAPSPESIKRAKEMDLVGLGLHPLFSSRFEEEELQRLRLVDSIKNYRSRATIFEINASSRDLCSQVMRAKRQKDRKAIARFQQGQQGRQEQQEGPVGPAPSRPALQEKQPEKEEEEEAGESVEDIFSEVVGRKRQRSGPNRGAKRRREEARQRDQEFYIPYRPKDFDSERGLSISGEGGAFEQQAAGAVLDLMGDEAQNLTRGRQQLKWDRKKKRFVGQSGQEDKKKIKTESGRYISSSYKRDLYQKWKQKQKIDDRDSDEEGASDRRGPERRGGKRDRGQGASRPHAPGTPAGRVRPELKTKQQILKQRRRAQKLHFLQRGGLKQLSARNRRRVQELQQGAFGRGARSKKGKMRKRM
UniProt Q7Z7A3: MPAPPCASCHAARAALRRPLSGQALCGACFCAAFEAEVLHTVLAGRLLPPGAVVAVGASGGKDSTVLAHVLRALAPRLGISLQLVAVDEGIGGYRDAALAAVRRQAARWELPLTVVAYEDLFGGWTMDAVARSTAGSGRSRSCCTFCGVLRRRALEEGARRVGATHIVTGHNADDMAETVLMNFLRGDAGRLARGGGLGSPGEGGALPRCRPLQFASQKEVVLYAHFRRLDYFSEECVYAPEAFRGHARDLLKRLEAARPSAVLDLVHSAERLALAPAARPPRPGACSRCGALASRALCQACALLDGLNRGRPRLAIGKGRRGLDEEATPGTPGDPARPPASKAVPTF
UniProt O75718: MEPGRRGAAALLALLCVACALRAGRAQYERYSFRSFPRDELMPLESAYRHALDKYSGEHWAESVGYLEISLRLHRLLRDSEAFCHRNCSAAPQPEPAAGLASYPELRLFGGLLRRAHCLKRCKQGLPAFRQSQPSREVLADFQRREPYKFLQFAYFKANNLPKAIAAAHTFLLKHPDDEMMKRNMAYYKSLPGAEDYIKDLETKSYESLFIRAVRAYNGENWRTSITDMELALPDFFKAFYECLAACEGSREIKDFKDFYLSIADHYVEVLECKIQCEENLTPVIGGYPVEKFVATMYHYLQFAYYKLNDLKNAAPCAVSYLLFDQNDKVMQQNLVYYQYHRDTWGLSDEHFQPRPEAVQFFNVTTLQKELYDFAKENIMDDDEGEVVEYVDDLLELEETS
UniProt Q9NY93: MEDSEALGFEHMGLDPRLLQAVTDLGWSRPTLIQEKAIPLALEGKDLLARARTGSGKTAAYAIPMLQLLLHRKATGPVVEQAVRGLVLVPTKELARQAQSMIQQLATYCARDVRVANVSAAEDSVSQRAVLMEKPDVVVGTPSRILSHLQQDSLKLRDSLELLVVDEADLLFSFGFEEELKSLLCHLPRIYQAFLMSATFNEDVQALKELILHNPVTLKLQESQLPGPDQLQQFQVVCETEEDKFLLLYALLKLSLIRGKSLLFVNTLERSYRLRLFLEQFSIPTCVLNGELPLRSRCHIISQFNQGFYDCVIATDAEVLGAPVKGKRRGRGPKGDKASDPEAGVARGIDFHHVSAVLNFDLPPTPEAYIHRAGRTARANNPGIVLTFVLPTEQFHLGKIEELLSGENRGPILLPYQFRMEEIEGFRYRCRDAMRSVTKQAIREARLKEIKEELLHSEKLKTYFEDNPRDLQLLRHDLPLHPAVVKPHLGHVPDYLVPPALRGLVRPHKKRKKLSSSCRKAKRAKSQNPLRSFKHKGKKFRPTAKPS

Target	log2 mean competition ratio
DDX59 C414 (UniProt Q5T1V6)	0.201
CRNKL1 C640 (UniProt Q9BZJ0)	0.353
CUL4B C264	-0.0031
DAGLB C465 (UniProt Q8NCG7)	0.095
DDX20 C162 (UniProt Q9UHI6)	-0.581
DCTN3 C140 (UniProt O75935)	-0.0509
DARS2 C590 (UniProt Q6PI48)	0.043
DCTN6 C18 (UniProt O00399)	-0.178
CRELD2 C277 (UniProt Q6UXH1)	0.56
DDX5 C221 (UniProt P17844)	0.0609
DDX39B C239	-0.222
DECR2 C80 (UniProt Q9NUI1)	0.298
CTPS2 C313 (UniProt Q9NRF8)	-0.115
DDX54 C586 (UniProt Q8TDD1)	0.238
CTU2 C268 (UniProt Q2VPK5)	-0.0795
CTSB C93 (UniProt P07858)	0.271
CXXC1 C531 (UniProt Q9P0U4)	-0.213
CTU1 C290 (UniProt Q7Z7A3)	0.025
CRTAP C84 (UniProt O75718)	0.0266
CSDE1 C106 (UniProt O75534)	-0.0361

Same assay, conditions: 200 µM; treatment time: 4 h; cell line lysate: HEK293T

Target	log2 mean competition ratio
DDX59 C414 (UniProt Q5T1V6)	-0.057
CRNKL1 C640 (UniProt Q9BZJ0)	-0.136
CUL4B C264	0.0358
DAGLB C465 (UniProt Q8NCG7)	-0.0207
DDX20 C162 (UniProt Q9UHI6)	-0.357
DCTN3 C140 (UniProt O75935)	-0.343
DDX56 C185 (UniProt Q9NY93)	-0.394
DARS2 C590 (UniProt Q6PI48)	-0.446
DCTN6 C18 (UniProt O00399)	0.201
CRELD2 C277 (UniProt Q6UXH1)	0.826
DDX5 C221 (UniProt P17844)	-0.139
DDX39B C239	-0.262
DECR2 C80 (UniProt Q9NUI1)	0.308
CTPS2 C313 (UniProt Q9NRF8)	-0.153
DDX54 C586 (UniProt Q8TDD1)	0.0916
CTU2 C268 (UniProt Q2VPK5)	0.31
CTSB C93 (UniProt P07858)	0.202
CXXC1 C531 (UniProt Q9P0U4)	-0.058
CTU1 C290 (UniProt Q7Z7A3)	0.0378
CRTAP C84 (UniProt O75718)	0.384
CSDE1 C106 (UniProt O75534)	-0.256
